US20160166525A1
Results are given in words; binding and its absence hold for the method and conditions named. Some results given as binding are weak or reduced against the parent protein; the word gives no strength.

Biological target: T1, very long chain acyl-CoA dehydrogenase (VLCAD), mouse (mouse), P50544
T1 chain: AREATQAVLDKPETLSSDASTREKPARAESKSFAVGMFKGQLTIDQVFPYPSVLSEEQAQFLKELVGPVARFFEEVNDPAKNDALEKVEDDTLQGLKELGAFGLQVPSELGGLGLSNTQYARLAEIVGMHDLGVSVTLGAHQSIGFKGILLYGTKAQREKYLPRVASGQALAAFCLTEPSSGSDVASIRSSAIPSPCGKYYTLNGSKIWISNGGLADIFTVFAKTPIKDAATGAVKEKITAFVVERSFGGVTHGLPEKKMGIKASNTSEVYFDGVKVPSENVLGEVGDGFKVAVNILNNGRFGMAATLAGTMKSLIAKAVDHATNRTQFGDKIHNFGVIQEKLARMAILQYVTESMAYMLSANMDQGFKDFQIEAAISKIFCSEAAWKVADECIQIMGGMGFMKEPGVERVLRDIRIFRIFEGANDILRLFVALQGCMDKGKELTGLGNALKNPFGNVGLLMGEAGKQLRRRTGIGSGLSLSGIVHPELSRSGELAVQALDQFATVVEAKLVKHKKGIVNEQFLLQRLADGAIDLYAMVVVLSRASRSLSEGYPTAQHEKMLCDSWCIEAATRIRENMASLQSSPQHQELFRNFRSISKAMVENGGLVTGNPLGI
Experiment: native gel electrophoresis with Western blot, liver mitochondria fractions
Details: remark: other sources report otherwise

B1: very long chain acyl-CoA dehydrogenase (VLCAD), mouse, P50544 42-656 (enzyme, UniProt P50544 42-656, looked up)
chain: AREATQAVLDKPETLSSDASTREKPARAESKSFAVGMFKGQLTIDQVFPYPSVLSEEQAQFLKELVGPVARFFEEVNDPAKNDALEKVEDDTLQGLKELGAFGLQVPSELGGLGLSNTQYARLAEIVGMHDLGVSVTLGAHQSIGFKGILLYGTKAQREKYLPRVASGQALAAFCLTEPSSGSDVASIRSSAIPSPCGKYYTLNGSKIWISNGGLADIFTVFAKTPIKDAATGAVKEKITAFVVERSFGGVTHGLPEKKMGIKASNTSEVYFDGVKVPSENVLGEVGDGFKVAVNILNNGRFGMAATLAGTMKSLIAKAVDHATNRTQFGDKIHNFGVIQEKLARMAILQYVTESMAYMLSANMDQGFKDFQIEAAISKIFCSEAAWKVADECIQIMGGMGFMKEPGVERVLRDIRIFRIFEGANDILRLFVALQGCMDKGKELTGLGNALKNPFGNVGLLMGEAGKQLRRRTGIGSGLSLSGIVHPELSRSGELAVQALDQFATVVEAKLVKHKKGIVNEQFLLQRLADGAIDLYAMVVVLSRASRSLSEGYPTAQHEKMLCDSWCIEAATRIRENMASLQSSPQHQELFRNFRSISKAMVENGGLVTGNPLGI
With B1 the binding was “binds”.
